These are yes or no findings as the source states them, for the method shown. Binding seen in cells or lysates may run through a third protein. Some entries that bind do so weakly or less than the wild type.
Key:
[1] = biological target: β-catenin (human (endogenous in 22rv1, PC3 and DU145 cells)) (UniProt P35222); assay: co-IP; whole cell lysates (non-denaturing lysis buffer) of DTX-sensitive and DTX-resistant 22rv1, PC3 and DU145 cells in complete medium; 500 ug protein, rabbit monoclonal anti-GR or anti-total β-catenin 1:100 with Protein A/G Sepharose, 12 h at 4 °C; detection by immunoblot with mouse monoclonal antibodies; normal rabbit IgG as negative control
[2] = biological target: Glucocorticoid receptor (human (endogenous in 22rv1, PC3 and DU145 cells)) (UniProt P04150); assay: as above
[3] = biological target: Glucocorticoid receptor (human (endogenous in 22rv1, PC3 and DU145 cells)) (UniProt P04150); assay: co-IP; nuclear extracts (Nuclear Complex Co-IP kit, enzymatic shearing) of DTX-sensitive and DTX-resistant prostate cancer cells grown 12 h in CS-FBS medium and treated with 10 nM dexamethasone for 30 min; 100 ug extract, rabbit antibody 1/100, 12 h at 4 °C, Protein A/G Sepharose; detection by immunoblot with mouse monoclonal antibodies

By UniProt entry, the sequences of proteins in these tests, tags left out.
UniProt P35222: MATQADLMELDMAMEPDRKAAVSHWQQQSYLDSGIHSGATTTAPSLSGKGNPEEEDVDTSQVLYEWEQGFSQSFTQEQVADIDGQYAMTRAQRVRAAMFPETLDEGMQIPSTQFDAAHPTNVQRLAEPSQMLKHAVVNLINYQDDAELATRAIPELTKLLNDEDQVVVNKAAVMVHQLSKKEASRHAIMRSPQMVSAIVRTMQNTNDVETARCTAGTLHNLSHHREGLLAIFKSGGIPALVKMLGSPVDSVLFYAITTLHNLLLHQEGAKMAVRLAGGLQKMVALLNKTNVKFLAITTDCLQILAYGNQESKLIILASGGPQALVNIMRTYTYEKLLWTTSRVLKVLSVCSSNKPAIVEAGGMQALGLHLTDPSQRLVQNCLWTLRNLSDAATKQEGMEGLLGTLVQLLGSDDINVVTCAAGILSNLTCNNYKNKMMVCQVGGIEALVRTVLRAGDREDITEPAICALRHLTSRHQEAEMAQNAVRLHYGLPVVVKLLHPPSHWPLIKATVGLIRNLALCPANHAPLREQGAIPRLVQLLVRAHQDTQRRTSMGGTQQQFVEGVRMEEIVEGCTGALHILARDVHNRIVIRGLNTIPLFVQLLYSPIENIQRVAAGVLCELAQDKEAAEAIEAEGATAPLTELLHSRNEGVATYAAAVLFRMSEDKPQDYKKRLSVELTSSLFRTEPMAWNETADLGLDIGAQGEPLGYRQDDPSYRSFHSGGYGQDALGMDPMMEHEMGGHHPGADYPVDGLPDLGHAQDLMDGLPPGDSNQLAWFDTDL
UniProt P04150: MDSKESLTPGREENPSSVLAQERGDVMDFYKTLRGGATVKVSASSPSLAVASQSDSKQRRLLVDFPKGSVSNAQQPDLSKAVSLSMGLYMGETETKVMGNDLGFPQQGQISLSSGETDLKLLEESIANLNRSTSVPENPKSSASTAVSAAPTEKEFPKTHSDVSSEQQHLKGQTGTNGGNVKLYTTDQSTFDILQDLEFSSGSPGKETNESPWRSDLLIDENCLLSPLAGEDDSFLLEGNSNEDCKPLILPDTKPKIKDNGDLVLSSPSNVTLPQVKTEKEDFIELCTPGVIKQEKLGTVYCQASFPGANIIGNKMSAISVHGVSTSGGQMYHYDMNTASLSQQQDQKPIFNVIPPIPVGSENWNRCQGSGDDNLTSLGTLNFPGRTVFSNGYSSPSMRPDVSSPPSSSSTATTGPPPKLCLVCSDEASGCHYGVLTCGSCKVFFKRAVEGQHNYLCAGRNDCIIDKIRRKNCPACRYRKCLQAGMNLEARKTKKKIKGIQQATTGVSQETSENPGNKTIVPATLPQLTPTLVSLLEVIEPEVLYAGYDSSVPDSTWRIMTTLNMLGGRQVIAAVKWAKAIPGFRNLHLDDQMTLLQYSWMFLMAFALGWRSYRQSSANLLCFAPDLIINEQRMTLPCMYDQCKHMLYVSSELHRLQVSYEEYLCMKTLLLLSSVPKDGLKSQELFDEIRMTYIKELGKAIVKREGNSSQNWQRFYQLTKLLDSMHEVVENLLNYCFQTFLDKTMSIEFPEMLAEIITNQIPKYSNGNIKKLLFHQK

Row | binding [1] | binding [2] | binding [3] | Substance
1 | binds | – | – | Glucocorticoid receptor (from UniProt P04150 1-777)
2 | – | binds | binds | β-catenin (from UniProt P35222 1-781)

— publication PMC10139020
